Test results taken from publication PMC9052155.
These are yes or no findings as the source states them, for the method shown. Binding seen in cells or lysates may run through a third protein. Some results given as binding are weak or reduced against the parent protein; the word gives no strength.

The chains behind the UniProt entries cited, without tags or fusion partners.
UniProt Q00987: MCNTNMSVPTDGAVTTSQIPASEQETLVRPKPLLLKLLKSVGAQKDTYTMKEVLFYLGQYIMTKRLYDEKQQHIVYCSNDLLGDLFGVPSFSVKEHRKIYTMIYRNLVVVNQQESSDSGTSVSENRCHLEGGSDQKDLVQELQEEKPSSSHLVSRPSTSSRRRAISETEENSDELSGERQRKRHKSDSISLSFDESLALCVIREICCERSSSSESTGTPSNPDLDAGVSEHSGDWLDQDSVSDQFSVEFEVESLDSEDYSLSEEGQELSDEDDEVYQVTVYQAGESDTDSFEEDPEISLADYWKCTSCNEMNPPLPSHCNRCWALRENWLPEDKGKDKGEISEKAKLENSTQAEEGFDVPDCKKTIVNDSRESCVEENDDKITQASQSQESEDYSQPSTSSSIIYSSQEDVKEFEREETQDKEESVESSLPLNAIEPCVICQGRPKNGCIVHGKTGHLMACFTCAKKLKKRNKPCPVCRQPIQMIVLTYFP

Key:
[1] = biological target: HA-tagged β-arr2F116A (rat) (UniProt P29067); assay: co-IP; co-IP of β-arr2 WT or β-arr2F116A with USP20, MDM2 and c-RAF (Figure S1); cells, constructs and direction not shown
[2] = biological target: HA-tagged β-arrestin2 (WT) (rat) (UniProt P29067); assay: as above
[3] = biological target: HA-tagged β-arrestin2 (WT) (rat) (UniProt P29067); assay: co-IP; HA-tagged β-arr2 constructs precipitated with anti-HA agarose from HEK-293 lysates (50 mM HEPES pH 7.5, 2 mM EDTA, 250 mM NaCl, 10% glycerol, 0.5% NP-40; 4 °C overnight); partners detected by immunoblot; cells unstimulated or stimulated with isoproterenol (Figures 1C, 1F, 5C)

binding [1] | binding [2] | binding [3] | Substance
binds | – | – | c-RAF (from UniProt P04049 1-648) (enzyme)
binds | binds | – | USP20 (as used in Figure S1) (from UniProt Q9Y2K6 1-914) (enzyme)
binds | binds | binds | mouse double minute 2 (from UniProt Q00987 1-491) (enzyme)
– | – | binds | ubiquitin-specific peptidase 20 (endogenous) (from UniProt Q9Y2K6 1-914) (enzyme)
